This experiment relates to P388 leukemia ip, CD2F1 mice, survival T/C. Briefly: NCI In Vivo Anticancer Drug Screen. Data for tumor model P388 Leukemia (intraperitoneal) in CD2F1 (CDF1) mice. The note with it: T/C endpoint: median survival time, higher T/C = longer survival.
The mark [1] stands for this setting: dose: 100.0 mg/kg/injection, schedule: Q01DX009 (ip), vehicle: Klucel (hydroxypropylcellulose) (HPC).
[2] abbreviates: dose: 200.0 mg/kg/injection, schedule: Q01DX009 (ip), vehicle: Klucel (hydroxypropylcellulose) (HPC).
The mark [3] stands for this setting: dose: 100.0 mg/kg/injection, schedule: Q01DX009 (ip), vehicle: saline.
[4] abbreviates: dose: 200.0 mg/kg/injection, schedule: Q01DX009 (ip), vehicle: saline.
Where [5] appears, read: dose: 3.12 mg/kg/injection, schedule: Q01DX009 (ip), vehicle: Klucel (hydroxypropylcellulose) (HPC).
Where [6] appears, read: dose: 6.25 mg/kg/injection, schedule: Q01DX009 (ip), vehicle: Klucel (hydroxypropylcellulose) (HPC).
[7] abbreviates: dose: 12.5 mg/kg/injection, schedule: Q01DX009 (ip), vehicle: Klucel (hydroxypropylcellulose) (HPC).
[8] abbreviates: dose: 25.0 mg/kg/injection, schedule: Q01DX009 (ip), vehicle: Klucel (hydroxypropylcellulose) (HPC).
Setting [9] is: dose: 50.0 mg/kg/injection, schedule: Q01DX009 (ip), vehicle: Klucel (hydroxypropylcellulose) (HPC).
Where [10] appears, read: dose: 50.0 mg/kg/injection, schedule: Q01DX009 (ip), vehicle: saline.

Consider 15 compounds from PubChem BioAssay AID330 (DTP/NCI, 2004).

The list shows only some results of the screen, not a fair sample: its compounds were picked by chemical class. Not every dose and run of a compound is shown. T/C is the treated group as % of the vehicle group. Some entries give survivors of the animals treated and no T/C: the source holds a T/C of zero for them, seemingly a mark for toxic or unscored doses. Some survivor counts are full or nearly so, which does not show that the dose was tolerated: the source hardly ever lists a survival T/C far under the control, and the zero likely stands for such cases as well. Counts of survivors are from the toxicity check (mostly the fifth day) where no day follows; animals may have died later. Schedule codes are those of the source, read here as Q, the interval in days (D) or hours (H), X, the number of doses. Some entries hold several experiments; the results are listed from low to high. For survival time, this PubChem deposit counts one and a half times the control or more as active, and values a quarter to a half above the control carry no call in these data; other NCI protocols may use other cut-offs. Some T/C values carry the count of animals alive at the toxicity check (mostly the fifth day); without a count or a note in brackets, all were alive then. Some entries show no survivor count and are marked so; the dose need not have been tolerated.

As for `O=[N+]([O-])c1cccc(O)c1[N+](=O)[O-]`, the T/C is 100 % of control [5 of 6 alive] (dose: 25.0 mg/kg/injection, schedule: Q01DX009 (ip), vehicle: other); 100 % of control (dose: 50.0 mg/kg/injection, schedule: Q01DX009 (ip), vehicle: other); 110 % of control (dose: 50.0 mg/kg/injection, schedule: Q04DX003 (ip), vehicle: other); 100 % of control (dose: 100.0 mg/kg/injection, schedule: Q01DX009 (ip), vehicle: other); 105 % of control (dose: 100.0 mg/kg/injection, schedule: Q04DX003 (ip), vehicle: other); 100 % of control (dose: 200.0 mg/kg/injection, schedule: Q04DX003 (ip), vehicle: other).

As for `COc1c([N+](=O)[O-])c(N)c([N+](=O)[O-])c(OC)c1[N+](=O)[O-]`, the T/C is 113 % of control (dose: 100.0 mg/kg/injection, schedule: Q04DX003 (ip), vehicle: saline); 105 % of control (dose: 200.0 mg/kg/injection, schedule: Q04DX003 (ip), vehicle: saline); 123 % of control (dose: 400.0 mg/kg/injection, schedule: Q04DX003 (ip), vehicle: saline).

Turning to `O=[N+]([O-])c1ccc(Sc2ccc([N+](=O)[O-])cc2[N+](=O)[O-])c([N+](=O)[O-])c1`, the T/C is, setting by setting: (dose: 50.0 mg/kg/injection, schedule: Q01DX009 (ip), vehicle: saline with Tween-80) 104 % of control [survivor count not shown]; (dose: 100.0 mg/kg/injection, schedule: Q01DX009 (ip), vehicle: saline with Tween-80) 113 % of control [survivor count not shown]; (dose: 200.0 mg/kg/injection, schedule: Q01DX009 (ip), vehicle: saline with Tween-80) 121 % of control [survivor count not shown].

Take `CCOP(=O)(O)CC.[Ti]`: the T/C was 95 % of control [survivor count not shown] under setting [1]; 94 % of control [survivor count not shown] under setting [2]; 91 % of control [survivor count not shown] (dose: 400.0 mg/kg/injection, schedule: Q01DX009 (ip), vehicle: Klucel (hydroxypropylcellulose) (HPC)).

As to `C=CS(=O)(=O)C=C`, the T/C is 95 % of control (dose: 0.25 mg/kg/injection, schedule: Q01DX009 (ip), vehicle: saline) and 95 % of control [4 of 6 alive] (dose: 0.5 mg/kg/injection, schedule: Q01DX009 (ip), vehicle: saline). Further, the survivor count (dose: 1.0 mg/kg/injection, schedule: Q01DX009 (ip), vehicle: saline) was 0 of 6.

Turning to `CC1(C)CN1P(=O)(Nc1ncccn1)N1CC1(C)C` (centres undefined), the T/C by setting is: under setting [3], 200 % of control; under setting [4], 195 % of control; (dose: 400.0 mg/kg/injection, schedule: Q01DX009 (ip), vehicle: saline) 168 % of control.

`ICCN(CCI)c1cccc2ccccc12`: the T/C by setting is: (dose: 0.39 mg/kg/injection, schedule: Q01DX009 (ip), vehicle: Klucel (hydroxypropylcellulose) (HPC)) 148 % of control; (dose: 0.78 mg/kg/injection, schedule: Q01DX009 (ip), vehicle: Klucel (hydroxypropylcellulose) (HPC)) 141 % of control; (dose: 1.56 mg/kg/injection, schedule: Q01DX009 (ip), vehicle: Klucel (hydroxypropylcellulose) (HPC)) 119 and 170 % of control; under setting [5], 121 % of control; (dose: 3.13 mg/kg/injection, schedule: Q01DX009 (ip), vehicle: Klucel (hydroxypropylcellulose) (HPC)) 153 % of control; under setting [6], 92, 158, 164 % of control. The T/C was 95 [5 of 6 alive], 169, 179 % of control under setting [7] and 111 % of control under setting [8]. In addition, the survivor count is, setting by setting: under setting [5], 6 of 6; under setting [6], 6 of 6; under setting [7], 5 of 6; under setting [8], 5 of 6; under setting [9], 2 of 6 and 6 of 6; under setting [1], 6 of 6. For the same compound, the survivor count under setting [2] was 4 of 6.

For the compound `O=[N+]([O-])c1ccc(N/N=C/C=N/Nc2ccc([N+](=O)[O-])cc2[N+](=O)[O-])c([N+](=O)[O-])c1`, the T/C reads like this: (dose: 50.0 mg/kg/injection, schedule: Q04DX003 (ip), vehicle: Klucel (hydroxypropylcellulose) (HPC)) 104 % of control; (dose: 100.0 mg/kg/injection, schedule: Q04DX003 (ip), vehicle: Klucel (hydroxypropylcellulose) (HPC)) 103 % of control; (dose: 200.0 mg/kg/injection, schedule: Q04DX003 (ip), vehicle: Klucel (hydroxypropylcellulose) (HPC)) 97 % of control; (dose: 400.0 mg/kg/injection, schedule: Q04DX003 (ip), vehicle: Klucel (hydroxypropylcellulose) (HPC)) 97 % of control.

As for `O=[N+]([O-])c1cc([N+](=O)[O-])c2nonc2c1`, the T/C was 103 % of control (dose: 15.0 mg/kg/injection, schedule: Q01DX005 (ip), vehicle: saline with Tween-80); 103 % of control (dose: 30.0 mg/kg/injection, schedule: Q01DX005 (ip), vehicle: saline with Tween-80); 103 [5 of 6 alive] and 105 % of control (dose: 60.0 mg/kg/injection, schedule: Q01DX005 (ip), vehicle: saline with Tween-80). In addition, the survivor count is, setting by setting: (dose: 120.0 mg/kg/injection, schedule: Q01DX005 (ip), vehicle: saline with Tween-80) 3 of 6; (dose: 240.0 mg/kg/injection, schedule: Q01DX005 (ip), vehicle: saline with Tween-80) 0 of 6.

As to `O[C@H](CNCCBr)[C@@H](O)CNCCBr`, under “dose: 6.6 mg/kg/injection, schedule: Q04DX003 (ip), vehicle: saline”, the T/C was 272 % of control. The survivor count (dose: 10.0 mg/kg/injection, schedule: Q04DX003 (ip), vehicle: saline) is given as 4 of 6 and the survivor count (dose: 15.0 mg/kg/injection, schedule: Q04DX003 (ip), vehicle: saline) is 0 of 6.

Regarding `S=P(Cl)(Cl)Oc1ccccc1`, the T/C reads like this: (dose: 6.25 mg/kg/injection, schedule: Q04DX003 (ip), vehicle: saline with Tween-80) 100 % of control; (dose: 12.5 mg/kg/injection, schedule: Q04DX003 (ip), vehicle: saline with Tween-80) 100 % of control; (dose: 25.0 mg/kg/injection, schedule: Q04DX003 (ip), vehicle: saline with Tween-80) 90 % of control.

Turning to `FP1(F)(F)N(CCl)P(F)(F)(F)N1CCl`, the T/C by setting is: (dose: 6.25 mg/kg/injection, schedule: Q01DX005 (ip), vehicle: saline) 95 % of control; (dose: 12.5 mg/kg/injection, schedule: Q01DX005 (ip), vehicle: saline) 101 % of control; (dose: 25.0 mg/kg/injection, schedule: Q01DX005 (ip), vehicle: saline) 101 % of control. Besides, the survivor count runs as follows: (dose: 50.0 mg/kg/injection, schedule: Q01DX005 (ip), vehicle: saline) 0 of 5; (dose: 100.0 mg/kg/injection, schedule: Q01DX005 (ip), vehicle: saline) 0 of 5; (dose: 200.0 mg/kg/injection, schedule: Q01DX005 (ip), vehicle: saline) 0 of 5.

In the case of `CONC(=O)NP(=O)(N1CC1(C)C)N1CC1(C)C` (centres undefined), the T/C by setting is: under setting [8], 132 % of control; under setting [9], 119 and 148 % of control; under setting [1], 153 and 174 % of control; under setting [2], 139 and 177 % of control.

For `CCN(CC)Cc1ccc(N(CCCl)CCCl)cc1`, the T/C by setting is: (dose: 33.0 mg/kg/injection, schedule: Q01DX009 (ip), vehicle: saline) 141 % of control; under setting [10], 150 and 159 % of control [5 of 6 alive]; (dose: 75.0 mg/kg/injection, schedule: Q01DX009 (ip), vehicle: saline) 128 % of control [5 of 6 alive]. In addition, the survivor count is, setting by setting: under setting [3], 1 of 6; under setting [4], 0 of 6.

`CC(C)(Cl)CSSCC(C)(C)Cl`: the T/C by setting is: under setting [10], 89 % of control [5 of 6 alive]; under setting [3], 99 % of control; under setting [4], 100 % of control.
